PubChem BioAssay AID1259405, NCATS – 2018

Test: 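Mouse-designed siRNAs used to find CHO productivity engineering targets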 (primary screen)
Cells: Chinese hamster CHO-K1 ovary cells with stable secreted eGFP expression
Knock-down reagent: single siRNA against mouse genes, 0.8 pmol siRNA per well (2 µl of 400 nM stock)
Duration: 3 days
Measurement: 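Per-well intracellular GFP measured by laser scanning cytometry, plus viability from ATP luminescence, each relative to plate median of non-targeting control wells, in %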
Direction: GFP, % of control: higher = more GFP per well, higher productivity
Call rule: 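a knock-down is called active if GFP reaches 120% or more of non-targeting control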
The whole screen tested about 50,000 reagents; this is a part drawn at random. Over the whole deposit, about 4,000 (8%) were called active. 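Mouse siRNA library applied to hamster cells; one well for each siRNA.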 Entries without a mark were called inactive. Reagents against one gene are numbered here. Further read-outs or replicates are left out here.

GFP, % of control, by target gene and reagent
Rab32 (RAB32, member RAS oncogene family): #1 110; #2 82.9; #3 61.8
Clk1 (CDC-like kinase 1): #1 123 (active); #2 111; #3 95.3
Ces1c (carboxylesterase 1C): #1 74.1; #2 61; #3 27.8
Tbc1d9 (TBC1 domain family, member 9): #1 92.8; #2 81.4; #3 68
Il6st (interleukin 6 signal transducer): #1 82.9; #2 77.2; #3 65.9
Rad51 (RAD51 recombinase): #1 60.1; #2 84.4
Mcpt2 (mast cell protease 2): #1 124 (active); #2 93.2; #3 118
Zfp42 (zinc finger protein 42): #1 50.6; #2 69.4; #3 55.2
Aoc1l3 (amine oxidase copper containing 1-like 3): #1 71.2; #2 127 (active); #3 80.6
Ifi35 (interferon-induced protein 35): #1 73.3; #2 93.1; #3 81.8
Plxna1 (plexin A1): #1 81.3; #2 105; #3 78.7

Reprinted from above (7 entries):
GFP, % of control, by target gene and reagent
Aoc1l3 (amine oxidase copper containing 1-like 3): #2 127 (active); #3 80.6
Ifi35 (interferon-induced protein 35): #1 73.3; #2 93.1; #3 81.8
Plxna1 (plexin A1): #1 81.3; #2 105

Additional records follow:
GFP, % of control, by target gene and reagent
Ppp2r5a (protein phosphatase 2, regulatory subunit B', alpha): #1 63.6; #2 34.5; #3 86.9
Camp (cathelicidin antimicrobial peptide): #1 120 (active); #2 61.2
Prss45 (serine protease 45): #1 117; #2 105; #3 52.7
Rfxap (regulatory factor X-associated protein): #1 62.9; #2 60.4; #3 84.2
Tdpoz4 (TD and POZ domain containing 4): #1 63.5; #2 107; #3 89.5
Wdr26 (WD repeat domain 26): #1 67.8; #2 99.7; #3 55.9
Spmip4 (sperm microtubule inner protein 4): #1 77.4; #2 49.8; #3 61.6
Ptk7 (PTK7 protein tyrosine kinase 7): #1 55.7; #2 94.8; #3 66.9
Tmem86a (transmembrane protein 86A): #1 87.7; #2 115; #3 86.9
Gabra2 (gamma-aminobutyric acid type A receptor subunit alpha 2): #1 81.3; #2 56.4; #3 50.9
Acsm3 (acyl-CoA synthetase medium-chain family member 3): #1 96.3; #2 67.8; #3 82.2
Nr1h3 (nuclear receptor subfamily 1, group H, member 3): #1 63.6; #2 90.7
Fli1 (Fli1 proto-oncogene, ETS transcription factor): #1 68.7; #2 101; #3 83.6
Chmp1a (charged multivesicular body protein 1A): #1 65.9; #2 98.7; #3 108
1700010H22Rik (RIKEN cDNA 1700010H22 gene): #1 74.5; #2 69.8; #3 76.5
Psme2: #1 88.6; #2 88.1; #3 70.8
Bloc1s3 (biogenesis of lysosomal organelles complex-1, subunit 3): #1 95.6; #2 84; #3 107
Cnih1 (cornichon family AMPA receptor auxiliary protein 1): #1 75.3; #2 65.4; #3 81.4
